# In PubChem BioAssay AID540300 (National Center for Advancing Translational Sciences (NCATS), 2011):
# Inconclusive results, whose numbers are uncertain, are shown with a selection of clear calls. Where the call is inconclusive, the potency comes from a doubtful curve fit. Calls of active or inactive are those of the source. The call rests on the fitted dose curve; in most records, active means well fitted curve in the direction sought with a large enough effect; inconclusive means small, poorly fitted or top-dose-only effect, or another doubt; inactive means no such curve, though single readings can be large or run the other way.
# Test: Inhibitors of DNA Polymerase Beta: Hit Validation in Klenow Fragment Assay
# Conditions: Klenow exo- polymerase counter-screen, fluorescent DNA substrate; series mostly up to 57.1 µM; activity change, negative = inhibition: at the top concentration
# From the text: The base excision repair system in human cells is a target for therapeutic modulation of the response to irradiation treatment and DNA-damaging drugs. A key enzyme in this system is the bi-functional DNA polymerase known as DNA polymerase beta (pol b). […] Using an integrated approach involving discovery of small molecule probes for pol b via qHTS and validation by crystallography and kinetics along with cell-based validation experiments, we will test the hypothesis that base excision repair can be strategically modulated in human cells by targeting pol b. Thus, we anticipate the pol b-specific probes emerging from this research will serve as starting points in the development of clinical agents for use in down regulation of DNA base excision repair during therapeutic interventions against cancer. After the completion of the qHTS against the Molecular Libraries Small Molecular Repository (MLSMR), cherry picked compounds were re-affirmed in the primary qHTS pol beta assay and further characterized in several follow-up assays. An E. coli Klenow exo- fragment assay was used as a counter screen assay. The Klenow exo- fragment is a large protein fragment of DNA polymerase which lack exonuclease activity. Measuring compounds activity against the Klenow exo- fragment helps identifying promiscuous compounds. […] NIH Chemical Genomics Center [NCGC] NIH Molecular Libraries Probe Centers Network [MLPCN] MLPCN Grant: MH090863-01 Assay Submitter (PI): Samuel Wilson, National Institute of Environmental Health Sciences (NIEHS), NIH Assay Submitter (PI): Samuel Wilson, National Institute of Environmental Health Sciences (NIEHS), NIH
# A stepwise description of the 1536-well assay is shown as described in primary assay. […] The plates will then be incubated for 15 min at room temperature, and 1 µl substrate of tripartate ds DNA (50nM final concentration) will be added to start the reaction and kinetically read twice at 0 min and 10 min on ViewLux reader.
Compound,Potency,"activity change, negative = inhibition"
CSc1nc(SCC(=O)O)c2sc3nc(-c4ccccc4)c4c(c3c2n1)CCC4,"inconclusive: 39.8 µM [inhibitor, partial curve, poor fit]",
COc1cccc(C(=O)Nc2ccc3c(c2)C(=O)c2ccccc2C3=O)c1,"inconclusive: 0.112 µM [inhibitor, full curve, poor fit]",
Cc1cc(SCC(=O)c2ccc(O)c(O)c2)nc2ccccc12,,inactive: -20.5%
